Data reported in patent EP4659808A2.
Results are given in words; binding and its absence hold for the method and conditions named. For some assays here: Binding can be weak; no strength is given.

Experiments:
[1] = biological target: murine beta-DG extracellular domain (mbeta-DG ECD) (mouse); experiment: dot blot
[2] = biological target: murine beta-DG extracellular domain (mbeta-DG ECD) (mouse); experiment: sequential SPR (Biacore), antibody on chip
[3] = biological target: beta-DG (species not told at the place); experiment: ELISA on beta-DG coat with blood samples of dosed mice
[4] = biological target: beta-DG (species not told at the place); experiment: phage ELISA of phage display clones

Binder	binding [2]	also measured
anti-beta-DG antibody derived from hybridoma clone AS30 (antibody, V domains shown) VH: QIQLQQSGPELVKPGASVKMSCEASGFTFTDSVITWVKQRPGQGLEWIGEIYPGSGNFYYNEKFKGKATLTADKSSNTAYMQLRSLTSEDSAVYFCAMRRSSWGQGTLVTVSA VL: DVLMTQTPLSLPVSLGDQASISCRSSQTIVHSNSKTYLEWYLQKPGQSPKLLIYKVSNRFSGVPDRFSGSGSGTDFTLKISRVEAEDLGVYYCFQGSHVPLTFGAGTKLELK	–	binding [1]: binds
anti-beta-DG antibody derived from hybridoma clone AS19 (antibody, V domains shown) VH: QVQLQQSGPELVKPGASVKMSCKASGFTFTDSVISWVKQRTGQGLEWIGEIYPGSGSIYYNEKFKGKATLTADKSSNTAYMQLRSLTSEDSAVYFCAMRRSYWGQGTLVTVSA VL: DVLMTQTPLSLPVSLGDQASISCRSSQSIVHSNGNTYLEWYLQKPGQSPKLLIYKVSNRFSGVPDRFSGSGSGTDFTLKISRVEAEDLGVYYCFQGSHVPLTFGAGTKLELK	binds	binding [1]: binds
bispecific antibody C5C6, anti-beta-DG(AS30) x anti-laminin-2(C3), CODV with 10-10-0-0 linker (bispecific antibody, not shown: a dimerising Fc or GST) heavy: QIQLQQSGPELVKPGASVKMSCEASGFTFTDSVITWVKQRPGQGLEWIGEIYPGSGNFYYNEKFKGKATLTADKSSNTAYMQLRSLTSEDSAVYFCAMRRSSWGQGTLVTVSADVMLVESGGDLVKPGGSLKLSCAASGFTFSSYTMSWVRQTPEKRLEWVASISSGGGNTYYPDSVKGRFTISRDNAKNNLYLQMSSLRSEDTALYYCARFDYGSSLDSWGQGTTLTVSS light: DIVLTQSPATLSVTPGDSVSLSCRASQSISNNLHWYQQKSHESPRLLIKYASQSISGIPSRFSGSGSGTDFTLSINSVETEDFGMYFCQQSKNWPRTFGGGTKLEIKGGSGSSGSGGDVLMTQTPLSLPVSLGDQASISCRSSQTIVHSNSKTYLEWYLQKPGQSPKLLIYKVSNRFSGVPDRFSGSGSGTDFTLKISRVEAEDLGVYYCFQGSHVPLTFGAGTKLELKGGSGSSGSGG	binds	–
anti-laminin-2 antibody derived from hybridoma clone C3 (antibody, V domains shown) VH: DVMLVESGGDLVKPGGSLKLSCAASGFTFSSYTMSWVRQTPEKRLEWVASISSGGGNTYYPDSVKGRFTISRDNAKNNLYLQMSSLRSEDTALYYCARFDYGSSLDSWGQGTTLTVSS VL: DIVLTQSPATLSVTPGDSVSLSCRASQSISNNLHWYQQKSHESPRLLIKYASQSISGIPSRFSGSGSGTDFTLSINSVETEDFGMYFCQQSKNWPRTFGGGTKLEIK	–	binding [3]: no binding
bispecific antibody T1T2, anti-beta-DG(AS19) x anti-laminin-2(C3), TBTI with (GGGGS)2 linker (bispecific antibody, not shown: a dimerising Fc or GST) heavy: QVQLQQSGPELVKPGASVKMSCKASGFTFTDSVISWVKQRTGQGLEWIGEIYPGSGSIYYNEKFKGKATLTADKSSNTAYMQLRSLTSEDSAVYFCAMRRSYWGQGTLVTVSAGGGGSGGGGSDVMLVESGGDLVKPGGSLKLSCAASGFTFSSYTMSWVRQTPEKRLEWVASISSGGGNTYYPDSVKGRFTISRDNAKNNLYLQMSSLRSEDTALYYCARFDYGSSLDSWGQGTTLTVSS light: DVLMTQTPLSLPVSLGDQASISCRSSQSIVHSNGNTYLEWYLQKPGQSPKLLIYKVSNRFSGVPDRFSGSGSGTDFTLKISRVEAEDLGVYYCFQGSHVPLTFGAGTKLELKGGGGSGGGGSDIVLTQSPATLSVTPGDSVSLSCRASQSISNNLHWYQQKSHESPRLLIKYASQSISGIPSRFSGSGSGTDFTLSINSVETEDFGMYFCQQSKNWPRTFGGGTKLEIK	binds	–
bispecific antibody T5T6, anti-beta-DG(AS30) x anti-laminin-2(C3), TBTI with (GGGGS)2 linker (bispecific antibody, not shown: a dimerising Fc or GST) heavy: QIQLQQSGPELVKPGASVKMSCEASGFTFTDSVITWVKQRPGQGLEWIGEIYPGSGNFYYNEKFKGKATLTADKSSNTAYMQLRSLTSEDSAVYFCAMRRSSWGQGTLVTVSAGGGGSGGGGSDVMLVESGGDLVKPGGSLKLSCAASGFTFSSYTMSWVRQTPEKRLEWVASISSGGGNTYYPDSVKGRFTISRDNAKNNLYLQMSSLRSEDTALYYCARFDYGSSLDSWGQGTTLTVSS light: DVLMTQTPLSLPVSLGDQASISCRSSQTIVHSNSKTYLEWYLQKPGQSPKLLIYKVSNRFSGVPDRFSGSGSGTDFTLKISRVEAEDLGVYYCFQGSHVPLTFGAGTKLELKGGGGSGGGGSDIVLTQSPATLSVTPGDSVSLSCRASQSISNNLHWYQQKSHESPRLLIKYASQSISGIPSRFSGSGSGTDFTLSINSVETEDFGMYFCQQSKNWPRTFGGGTKLEIK	binds	–
anti-beta-DG antibody phage display clone B04 (antibody, V domains shown) VH: QVQLQQSGGGLVQPGGSLRLSCAASGFTFSSYAMSWVRQAPGKGLEWVSAISGSGGSTYYADSVKGRFTVSRDNSKNTLYLQMNSLRAEDTAVYYCARLGYCSSTSCYLSAFDIWGQGTMVTVSS VL: EIVLTQSPSTLSASVGDRVTITCRASQSISSWLAWYQQKPGKAPKLLIYDASSLESGVPSRFSGSGSGTEFTLTISSLQPDDFATYYCQQYNSYPLTFGGGTKVEIK	–	binding [4]: binds
